This note sets out measurements from PubChem BioAssay AID192 (DTP/NCI, 2004).

This assay concerns BDF1 mice, B16 melanoma ip, median survival T/C. Briefly: NCI In Vivo Anticancer Drug Screen. Data for tumor model B16 Melanoma (intraperitoneal) in B6D2F1 (BDF1) mice. The conditions noted are these: T/C endpoint: median survival time, higher T/C = longer survival. The method, then:
The antitumor activity of compounds was measured in mice bearing transplantable tumors. Survival or tumor size were measured and the results are expressed as the measurement made in the treated group (T) divided by the measurement made in the vehicle treated control group (C). The tumor model used in this assay is B16 Melanoma (intraperitoneal) in B6D2F1 (BDF1) mice

The list is a part of this screen's results and no random one: it gathers some chemical classes. Other doses and runs of a compound may be missing. T/C is the treated group as % of the vehicle group. For survival time, the PubChem record calls one and a half times the control and up active, and a quarter to a half above the control has no call in these data; cut-offs in other NCI protocols can differ. Some T/C values are marked as having no survivor count here; that says nothing about deaths at the dose. Schedules are NCI's codes, read here as Q, the interval in days (D) or hours (H), X, the number of doses. Some entries hold several experiments; the results are listed from low to high. Some complexes appear as separate parts, the way the source draws them; their charges need not add up.

For the compound `CN(CCCl)CCCl`, the T/C (dose: 0.04 mg/kg/injection, schedule: Q01DX009 (ip), vehicle: saline) is 154 % of control [survivor count not shown]; the T/C (dose: 0.06 mg/kg/injection, schedule: Q01DX009 (ip), vehicle: saline) was 140 % of control [survivor count not shown]; the T/C (dose: 0.08 mg/kg/injection, schedule: Q01DX009 (ip), vehicle: saline) was 200 % of control [survivor count not shown]; the T/C (dose: 0.1 mg/kg/injection, schedule: Q01DX009 (ip), vehicle: water) was 144 % of control [survivor count not shown]; the T/C (dose: 0.12 mg/kg/injection, schedule: Q01DX005 (ip), vehicle: water) is 108 % of control [survivor count not shown]; the T/C (dose: 0.12 mg/kg/injection, schedule: Q01DX009 (ip), vehicle: saline) was 162 % of control [survivor count not shown]. For the same compound, the T/C is 122 [survivor count not shown] and 128 % of control [survivor count not shown] (dose: 0.13 mg/kg/injection, schedule: Q01DX009 (ip), vehicle: saline); 180 % of control [survivor count not shown] (dose: 0.16 mg/kg/injection, schedule: Q01DX009 (ip), vehicle: saline); 122 % of control [survivor count not shown] (dose: 0.25 mg/kg/injection, schedule: Q01DX005 (ip), vehicle: water); 126 [survivor count not shown], 135 [survivor count not shown], 189 % of control [survivor count not shown] (dose: 0.25 mg/kg/injection, schedule: Q01DX009 (ip), vehicle: saline); 172 % of control [survivor count not shown] (dose: 0.25 mg/kg/injection, schedule: Q01DX009 (ip), vehicle: water); 180 % of control [survivor count not shown] (dose: 0.3 mg/kg/injection, schedule: Q01DX009 (ip), vehicle: water). Moreover, the T/C (dose: 0.5 mg/kg/injection, schedule: Q01DX005 (ip), vehicle: water) is 116 % of control [survivor count not shown]; the T/C (dose: 0.5 mg/kg/injection, schedule: Q01DX009 (ip), vehicle: saline) is 169 [survivor count not shown] and 170 % of control [survivor count not shown]; the T/C (dose: 0.5 mg/kg/injection, schedule: Q01DX009 (ip), vehicle: water) is 209 % of control [survivor count not shown]; the T/C (dose: 0.75 mg/kg/injection, schedule: Q01DX005 (ip), vehicle: water) is 138 % of control [survivor count not shown]; the T/C (dose: 1.0 mg/kg/injection, schedule: Q01DX005 (ip), vehicle: water) is 125 % of control [survivor count not shown]; the T/C (dose: 1.0 mg/kg/injection, schedule: Q01DX009 (ip), vehicle: saline) was 185 % of control [survivor count not shown]. Besides, the T/C reads like this: (dose: 2.5 micrograms/kg/injection, schedule: Q01DX009 (ip), vehicle: saline) 123 % of control [survivor count not shown]; (dose: 5.0 micrograms/kg/injection, schedule: Q01DX009 (ip), vehicle: saline) 130 % of control [survivor count not shown]; (dose: 10.0 micrograms/kg/injection, schedule: Q01DX009 (ip), vehicle: saline) 111 % of control [survivor count not shown]; (dose: 20.0 micrograms/kg/injection, schedule: Q01DX009 (ip), vehicle: saline) 116 % of control [survivor count not shown]; (dose: 30.0 micrograms/kg/injection, schedule: Q01DX009 (ip), vehicle: saline) 175 % of control [survivor count not shown]; (dose: 60.0 micrograms/kg/injection, schedule: Q01DX009 (ip), vehicle: saline) 195 % of control [survivor count not shown]. Besides, the T/C reads like this: (dose: 63.0 micrograms/kg/injection, schedule: Q01DX009 (ip), vehicle: saline) 157 % of control [survivor count not shown]; (dose: 125.0 micrograms/kg/injection, schedule: Q01DX009 (ip), vehicle: saline) 217 [survivor count not shown] and 227 % of control [survivor count not shown]; (dose: 250.0 micrograms/kg/injection, schedule: Q01DX009 (ip), vehicle: saline) 188 [survivor count not shown] and 222 % of control [survivor count not shown]; (dose: 500.0 micrograms/kg/injection, schedule: Q01DX009 (ip), vehicle: saline) 154 % of control [survivor count not shown].
As for `CN(CCCl)CCCl.O.O.O.[Cl][Ni+][Cl]`, the T/C (dose: 3.13 mg/kg/injection, schedule: Q01DX009 (ip), vehicle: saline) was 107 % of control [survivor count not shown]; the T/C (dose: 6.25 mg/kg/injection, schedule: Q01DX009 (ip), vehicle: saline) is 107 % of control [survivor count not shown]; the T/C (dose: 12.5 mg/kg/injection, schedule: Q01DX009 (ip), vehicle: saline) was 105 % of control [survivor count not shown]; the T/C (dose: 25.0 mg/kg/injection, schedule: Q01DX009 (ip), vehicle: saline) is 125 % of control [survivor count not shown].
